Source: publication PMC13529201
No constants are given. Whether binding was seen depends on the method and setting. Binding seen in cells or lysates may run through a third protein. Some results given as binding are weak or reduced against the parent protein; the word gives no strength.

Molecular target: T1, ABCF2, endogenous in A549 cells (human (endogenous in A549)) (UniProt Q9UG63)
T1 sequence: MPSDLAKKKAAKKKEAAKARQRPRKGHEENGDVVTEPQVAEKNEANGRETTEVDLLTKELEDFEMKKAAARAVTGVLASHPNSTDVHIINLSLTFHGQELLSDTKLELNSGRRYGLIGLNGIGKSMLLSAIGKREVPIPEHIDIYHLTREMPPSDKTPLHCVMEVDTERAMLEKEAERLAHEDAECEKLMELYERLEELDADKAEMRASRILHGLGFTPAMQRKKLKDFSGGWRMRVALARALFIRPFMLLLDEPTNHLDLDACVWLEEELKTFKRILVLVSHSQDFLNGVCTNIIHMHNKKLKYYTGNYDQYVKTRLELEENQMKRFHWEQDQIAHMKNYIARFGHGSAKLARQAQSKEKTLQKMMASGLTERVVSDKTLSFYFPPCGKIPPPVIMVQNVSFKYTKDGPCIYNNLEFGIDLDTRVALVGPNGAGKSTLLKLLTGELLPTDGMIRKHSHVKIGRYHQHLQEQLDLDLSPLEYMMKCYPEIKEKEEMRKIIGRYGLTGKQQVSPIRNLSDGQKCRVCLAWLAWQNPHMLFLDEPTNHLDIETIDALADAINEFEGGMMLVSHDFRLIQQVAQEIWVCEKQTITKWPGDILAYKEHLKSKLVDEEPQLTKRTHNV
Test: co-IP

- binding: binds
Substance: p53, endogenous in A549 cells (from UniProt P04637 1-393)
